Laboratory results published in PubChem BioAssay AID493014 (National Center for Advancing Translational Sciences (NCATS), 2011).
This is one part of the list. The main result of the screen is listed elsewhere. These columns were measured beside it and carry no call. The list favours compounds with an active or inconclusive main result. Words in brackets tell the shape of the fitted curve; partial curves, single points and poor fits give uncertain potencies.

Assay: qHTS Assay to Find Inhibitors of Chronic Active B-Cell Receptor Signaling
Conditions: ABC-DLBCL IkBa-CBG/CBR reporter, luminescence ratio (green luciferase fused to IkBa over red control in TMD8 lymphoma cells), 4 h
Summary of the method: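 Doxycycline induced both beetle luciferases in TMD8 lymphoma cells; IKK-driven degradation limits the IkappaBalpha-fused green signal, while red luminescence normalises for cell number and nonspecific effects. Compounds tested up to 46 uM, 4 hrs.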

[1] = measured here: CBR red luminescence, cell number
[2] = measured here: IkBa-CBG green luminescence

Row | Compound | AC50 [1] | AC50 [2]
1 | CCCCc1c(C)nc2ccc(OC)cc2c1SCCC(=O)O | 5.62 µM [falling, single point] | 
2 | COc1ccc(OC)c(-c2cc(C(=O)NC3CCCC3)c3ccccc3n2)c1 | 3.55 µM [rising, full curve, poor fit] | 
3 | Cc1ccc(NC(=O)COc2ccccc2C(N)=O)cc1S(=O)(=O)N1CCCCCC1 | 29.1 µM [falling, single point] | 
4 | COCCn1nnnc1C(c1ccc(OC)cc1)N1CCN(c2ccccc2F)CC1 (configuration not stated) | 32.6 µM [rising, single point] | 
5 | CCOc1cccc2cc(-c3csc(NC(=O)CCC(=O)NCCN4CCCCC4C)n3)c(=O)oc12 (configuration not stated) | 0.224 µM [falling, full curve, poor fit] | 
6 | CN(C)c1ccc(/C=N/NC(=O)c2ccc(Cl)cc2)cc1 | 2.51 µM [falling, partial curve, poor fit] | 
7 | CN(C)C(=O)CSc1n[nH]c(=O)n1CCc1ccccc1 | 2.51 µM [falling, full curve, poor fit] | 
8 | COc1ccc(OCc2cc(C(=O)N3C[C@H]4CC[C@H]3C4)no2)c(Cl)c1 | 35.5 µM [falling, single point] | 
9 | Cc1cccc(N2CCN(C(=O)c3ccc4c(c3)c(C)c(C)n4C)CC2C)c1 (configuration not stated) | 35.5 µM [falling, single point] | 
10 | Cc1ccn2cc(C(=O)Nc3cccc(C(=O)NC4CC4)c3)nc2c1 | 6.51 µM [falling, partial curve] | 
11 | Cc1ccc(Nc2nc(N)nc(-c3oc4ccccc4c3C)n2)cc1 | 2.82 µM [rising, full curve] | 0.562 µM [falling, full curve]
12 | C/C(CC(=O)Nc1cccc(Br)c1)=N\NC(=O)c1ccc(O)cc1O | 10 µM [falling, partial curve] | 
13 | COc1cc(S(=O)(=O)Nc2cccc(C)c2)ccc1N=Cc1c(C)[nH]n(-c2ccccc2)c1=O |  | 20.6 µM [rising, partial curve, poor fit]
14 | Cc1ccc(S(=O)(=O)Cn2nnnc2CN2CCCC3(CCCCC3)C2)cc1 | 29.1 µM [falling, single point] | 
15 | Cc1nc(CCNC(=O)C2CCC(=O)N(Cc3ccc(Cl)cc3)C2)sc1C (configuration not stated) | 12.6 µM [falling, single point] | 
16 | Cc1cccn2cc(CCNC(=O)c3ccc(Br)o3)nc12 | 20.6 µM [falling, partial curve] | 
17 | O=S(=O)(c1ccc(NC(=S)N/N=C/c2ccc(N3CCOCC3)cc2)cc1)N1CCOCC1 | 16.4 µM [falling, partial curve] | 
18 | Cc1cccc(N(C(=O)C(F)(F)F)C(C(=O)NC2CCCCC2)c2cccs2)c1 (configuration not stated) | 3.55 µM [falling, partial curve, poor fit] | 
19 | COc1cc(CNC(C)C)ccc1OCC(=O)Nc1cccc2ccccc12 | 25.1 µM [falling, single point] | 
20 | Cc1ccc(-n2c(SCC(N)=O)nc3c([nH]c4ccccc43)c2=O)cc1 | 0.651 µM [falling, full curve] | 

Some of the entries so far, as comma-separated lines.
Row,Compound,AC50 [1],AC50 [2]
2,COc1ccc(OC)c(-c2cc(C(=O)NC3CCCC3)c3ccccc3n2)c1,"3.55 µM [rising, full curve, poor fit]",
3,Cc1ccc(NC(=O)COc2ccccc2C(N)=O)cc1S(=O)(=O)N1CCCCCC1,"29.1 µM [falling, single point]",

Additional compounds follow:

Row | Compound | AC50 [1] | AC50 [2]
21 | Cc1ccc(Nc2nc(N3CCOCC3)c3ccccc3n2)cc1 | 17.8 µM [falling, single point] | 
22 | COC(=O)c1sc(NC(=O)c2ccoc2C)nc1C | 13 µM [falling, partial curve] | 
23 | Cc1cccc2cc3c(nc12)-c1ccccc1C3=O | 11.2 µM [rising, partial curve] | 
24 | Cc1ccc2nc(SCC(=O)c3ccc(Cl)cc3)nc(=O)n2c1 | 0.461 µM [falling, full curve, poor fit] | 
25 | CCOc1ccccc1NC(=O)COc1ccc(S(=O)(=O)N2CCCC2)cc1 | 20 µM [falling, single point] | 
26 | CCn1cnc2c1c(=O)n(Cc1nnc3n1-c1ccccc1SC3)c(=O)n2Cc1ccccc1 | 16.4 µM [falling, partial curve, poor fit] | 
27 | CCCn1c(N/N=C\C=C\c2ccccc2)nc2c1c(=O)[nH]c(=O)n2C | 22.4 µM [rising, partial curve, poor fit] | 
28 | Cn1c(-c2ccccc2)cnc1SCc1nc2ccccc2c(=O)[nH]1 | 2.06 µM [rising, full curve, poor fit] | 
29 | O=C(CNC(=O)C(c1ccccc1)c1ccccc1)OCc1ccccc1 | 3.55 µM [rising, partial curve, poor fit] | 
30 | CCCCCc1ccc(C(=O)CCCC)c(=S)[nH]1 | 14.1 µM [rising, partial curve, poor fit] | 
31 | CCS(=O)(=O)N1CCN(C2Cc3ccccc3C2)CC1 | 14.6 µM [rising, partial curve, poor fit] | 
32 | Cc1c(OCC(=O)N2CCC(C(=O)O)CC2)ccc2c1oc(=O)c1ccccc12 | 5.01 µM [falling, partial curve] | 
33 | Nc1n[nH]c(N)c1N=Nc1cccc(F)c1 | 4.61 µM [rising, single point] | 
34 | CC1CCN(C(=O)COC(=O)/C=C/c2ccc([N+](=O)[O-])cc2)CC1 | 6.51 µM [rising, single point] | 
35 | Oc1ccccc1-n1nc2ccc3nonc3c2n1 | 11.2 µM [rising, single point] | 
36 | COc1cc2c(C(=O)N(C)c3ccc(F)cc3)cn(C)c(=O)c2cc1OC | 35.5 µM [falling, partial curve, poor fit] | 
37 | Cn1nc(C(F)(F)F)c(/C=N/OC(=O)c2ccccc2)c1Sc1ccc(Cl)cc1 |  | 9.2 µM [falling, partial curve]
38 | O=C(COC(=O)C1=COCCO1)Nc1cc(S(=O)(=O)N2CCCCC2)ccc1Cl | 15.8 µM [falling, partial curve] | 
39 | Cc1ccsc1/C=C(\C#N)C(=O)NC1CCS(=O)(=O)C1 (configuration not stated) | 35.5 µM [rising, single point] | 
40 | CCCCN1CC(=O)N2[C@H]3c4cc(Cl)ccc4OC[C@@H]3[C@H](c3ccccc3)[C@]2(C)C1=O | 29.1 µM [falling, single point] | 16.4 µM [rising, partial curve, poor fit]
